Measured values published in the supplement of paper PMC10849652.
The list shows a part of the results.

Chains of the proteins cited; added tags and fusions are not shown. Lines headed by an entry give the natural chain unless they say otherwise; changes in a name come on top.
UniProt Q9NXH9: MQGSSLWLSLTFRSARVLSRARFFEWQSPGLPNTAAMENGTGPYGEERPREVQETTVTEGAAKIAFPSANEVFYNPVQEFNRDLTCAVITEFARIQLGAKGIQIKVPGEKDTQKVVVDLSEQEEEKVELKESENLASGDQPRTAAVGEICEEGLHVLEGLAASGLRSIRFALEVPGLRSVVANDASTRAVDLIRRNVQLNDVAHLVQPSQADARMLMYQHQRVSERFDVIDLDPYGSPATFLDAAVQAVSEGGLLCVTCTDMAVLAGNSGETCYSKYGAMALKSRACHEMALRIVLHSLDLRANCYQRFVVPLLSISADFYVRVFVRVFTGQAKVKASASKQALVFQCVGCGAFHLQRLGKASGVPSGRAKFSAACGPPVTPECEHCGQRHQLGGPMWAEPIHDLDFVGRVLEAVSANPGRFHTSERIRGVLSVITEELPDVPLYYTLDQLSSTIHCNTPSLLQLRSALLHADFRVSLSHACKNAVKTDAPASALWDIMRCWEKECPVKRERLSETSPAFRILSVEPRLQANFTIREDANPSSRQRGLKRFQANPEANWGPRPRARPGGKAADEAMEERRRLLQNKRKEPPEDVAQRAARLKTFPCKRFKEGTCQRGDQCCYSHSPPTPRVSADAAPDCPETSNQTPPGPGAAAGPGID
UniProt Q15785: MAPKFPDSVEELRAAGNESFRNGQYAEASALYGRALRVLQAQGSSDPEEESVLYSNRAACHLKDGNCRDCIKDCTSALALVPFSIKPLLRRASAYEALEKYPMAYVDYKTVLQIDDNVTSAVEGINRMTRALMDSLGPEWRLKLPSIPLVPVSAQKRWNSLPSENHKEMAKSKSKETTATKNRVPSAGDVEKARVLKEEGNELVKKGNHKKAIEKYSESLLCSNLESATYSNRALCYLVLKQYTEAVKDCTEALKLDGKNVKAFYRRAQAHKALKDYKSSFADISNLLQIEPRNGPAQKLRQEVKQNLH
UniProt Q5JU69: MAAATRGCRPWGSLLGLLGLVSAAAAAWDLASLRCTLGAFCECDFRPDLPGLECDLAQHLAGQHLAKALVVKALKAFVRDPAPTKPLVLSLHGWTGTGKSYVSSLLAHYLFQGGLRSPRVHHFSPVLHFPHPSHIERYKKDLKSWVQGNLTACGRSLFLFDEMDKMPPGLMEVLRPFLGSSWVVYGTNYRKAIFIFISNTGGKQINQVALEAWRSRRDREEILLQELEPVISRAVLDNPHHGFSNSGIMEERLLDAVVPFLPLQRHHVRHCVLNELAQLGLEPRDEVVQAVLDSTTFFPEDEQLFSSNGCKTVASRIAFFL
UniProt Q9BUZ4: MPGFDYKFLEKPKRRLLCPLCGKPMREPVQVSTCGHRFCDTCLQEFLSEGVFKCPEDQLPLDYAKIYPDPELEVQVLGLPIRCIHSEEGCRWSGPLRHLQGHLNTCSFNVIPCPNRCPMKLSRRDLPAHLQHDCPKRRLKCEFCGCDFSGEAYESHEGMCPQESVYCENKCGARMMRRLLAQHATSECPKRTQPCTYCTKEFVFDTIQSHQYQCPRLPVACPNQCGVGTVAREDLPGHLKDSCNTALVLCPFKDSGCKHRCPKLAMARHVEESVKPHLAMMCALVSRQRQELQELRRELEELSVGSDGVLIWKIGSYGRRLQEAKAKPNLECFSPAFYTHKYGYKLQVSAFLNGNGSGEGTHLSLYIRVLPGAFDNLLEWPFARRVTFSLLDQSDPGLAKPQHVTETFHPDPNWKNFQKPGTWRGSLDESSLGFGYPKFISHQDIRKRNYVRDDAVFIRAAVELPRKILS
UniProt P62995: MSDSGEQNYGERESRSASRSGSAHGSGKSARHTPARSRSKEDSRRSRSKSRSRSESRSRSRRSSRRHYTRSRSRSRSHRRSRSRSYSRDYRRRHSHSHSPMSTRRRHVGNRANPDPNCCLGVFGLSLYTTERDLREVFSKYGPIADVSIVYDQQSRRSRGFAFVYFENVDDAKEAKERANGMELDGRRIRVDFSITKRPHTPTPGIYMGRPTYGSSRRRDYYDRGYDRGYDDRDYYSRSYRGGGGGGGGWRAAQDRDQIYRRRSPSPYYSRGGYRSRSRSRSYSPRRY
UniProt O43715: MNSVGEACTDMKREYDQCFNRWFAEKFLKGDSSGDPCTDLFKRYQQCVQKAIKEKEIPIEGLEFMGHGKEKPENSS
UniProt Q9UPN9: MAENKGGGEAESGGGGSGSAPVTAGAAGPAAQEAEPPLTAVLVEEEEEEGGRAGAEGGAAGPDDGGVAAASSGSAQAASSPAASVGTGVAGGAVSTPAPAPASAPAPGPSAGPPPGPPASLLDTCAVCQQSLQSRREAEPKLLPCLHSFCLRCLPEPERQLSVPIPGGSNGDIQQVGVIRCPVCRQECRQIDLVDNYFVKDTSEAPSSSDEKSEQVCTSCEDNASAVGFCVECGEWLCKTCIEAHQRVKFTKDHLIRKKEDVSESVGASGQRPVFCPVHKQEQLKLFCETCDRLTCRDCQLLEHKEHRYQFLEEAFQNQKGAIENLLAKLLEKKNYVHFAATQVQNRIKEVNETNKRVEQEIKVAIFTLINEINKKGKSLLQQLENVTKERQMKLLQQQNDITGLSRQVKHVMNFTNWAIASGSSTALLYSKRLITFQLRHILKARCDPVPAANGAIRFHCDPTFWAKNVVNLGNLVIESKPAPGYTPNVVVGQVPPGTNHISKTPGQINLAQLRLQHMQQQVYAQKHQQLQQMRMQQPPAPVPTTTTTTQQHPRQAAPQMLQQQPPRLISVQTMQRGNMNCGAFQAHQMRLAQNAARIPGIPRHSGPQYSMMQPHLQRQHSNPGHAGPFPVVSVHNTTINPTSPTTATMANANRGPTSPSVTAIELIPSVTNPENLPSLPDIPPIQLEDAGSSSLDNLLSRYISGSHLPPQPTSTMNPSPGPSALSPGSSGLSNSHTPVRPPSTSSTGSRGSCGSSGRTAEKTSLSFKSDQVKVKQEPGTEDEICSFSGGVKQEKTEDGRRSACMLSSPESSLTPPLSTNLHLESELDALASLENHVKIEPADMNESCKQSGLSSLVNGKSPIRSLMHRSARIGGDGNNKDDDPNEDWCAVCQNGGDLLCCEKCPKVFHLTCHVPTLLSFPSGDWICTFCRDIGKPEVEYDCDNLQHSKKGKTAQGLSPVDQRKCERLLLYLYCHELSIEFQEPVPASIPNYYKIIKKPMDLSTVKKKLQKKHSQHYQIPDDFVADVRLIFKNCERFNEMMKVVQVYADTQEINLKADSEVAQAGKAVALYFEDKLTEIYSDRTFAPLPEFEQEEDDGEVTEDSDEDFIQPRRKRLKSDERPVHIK
UniProt Q8IUR0, whole entry, looked up: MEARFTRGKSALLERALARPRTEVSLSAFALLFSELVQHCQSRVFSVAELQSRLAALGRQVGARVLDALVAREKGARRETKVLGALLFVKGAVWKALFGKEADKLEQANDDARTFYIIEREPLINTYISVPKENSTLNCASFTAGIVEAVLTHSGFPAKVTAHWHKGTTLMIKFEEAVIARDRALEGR
UniProt Q53FA7: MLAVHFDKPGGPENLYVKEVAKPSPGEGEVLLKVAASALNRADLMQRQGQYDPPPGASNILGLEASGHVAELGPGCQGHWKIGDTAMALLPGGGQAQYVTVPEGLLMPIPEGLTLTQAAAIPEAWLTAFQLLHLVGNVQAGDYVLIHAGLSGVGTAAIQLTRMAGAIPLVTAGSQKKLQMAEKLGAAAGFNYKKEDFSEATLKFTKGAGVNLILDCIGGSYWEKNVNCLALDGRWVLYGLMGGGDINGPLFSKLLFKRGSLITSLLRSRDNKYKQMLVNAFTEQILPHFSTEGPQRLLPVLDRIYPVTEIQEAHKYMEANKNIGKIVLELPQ
UniProt Q12931: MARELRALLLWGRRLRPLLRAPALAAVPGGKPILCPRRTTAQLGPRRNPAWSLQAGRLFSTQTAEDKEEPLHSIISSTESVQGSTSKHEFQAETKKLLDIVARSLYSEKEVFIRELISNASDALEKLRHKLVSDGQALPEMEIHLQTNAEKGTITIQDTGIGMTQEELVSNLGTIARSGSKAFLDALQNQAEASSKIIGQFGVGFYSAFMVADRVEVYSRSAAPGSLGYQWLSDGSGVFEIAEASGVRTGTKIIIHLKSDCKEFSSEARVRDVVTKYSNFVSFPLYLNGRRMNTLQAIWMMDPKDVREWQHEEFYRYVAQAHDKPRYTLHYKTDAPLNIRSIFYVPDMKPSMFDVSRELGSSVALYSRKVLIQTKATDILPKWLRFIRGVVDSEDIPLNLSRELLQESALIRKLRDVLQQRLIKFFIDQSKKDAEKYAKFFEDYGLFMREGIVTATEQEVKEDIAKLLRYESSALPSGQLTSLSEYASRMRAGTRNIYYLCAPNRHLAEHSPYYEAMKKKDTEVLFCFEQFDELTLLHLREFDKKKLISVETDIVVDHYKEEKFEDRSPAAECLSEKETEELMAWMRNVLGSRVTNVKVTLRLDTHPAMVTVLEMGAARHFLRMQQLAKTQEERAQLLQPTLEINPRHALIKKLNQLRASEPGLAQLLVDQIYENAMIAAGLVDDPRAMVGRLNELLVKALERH
UniProt Q8NFQ8: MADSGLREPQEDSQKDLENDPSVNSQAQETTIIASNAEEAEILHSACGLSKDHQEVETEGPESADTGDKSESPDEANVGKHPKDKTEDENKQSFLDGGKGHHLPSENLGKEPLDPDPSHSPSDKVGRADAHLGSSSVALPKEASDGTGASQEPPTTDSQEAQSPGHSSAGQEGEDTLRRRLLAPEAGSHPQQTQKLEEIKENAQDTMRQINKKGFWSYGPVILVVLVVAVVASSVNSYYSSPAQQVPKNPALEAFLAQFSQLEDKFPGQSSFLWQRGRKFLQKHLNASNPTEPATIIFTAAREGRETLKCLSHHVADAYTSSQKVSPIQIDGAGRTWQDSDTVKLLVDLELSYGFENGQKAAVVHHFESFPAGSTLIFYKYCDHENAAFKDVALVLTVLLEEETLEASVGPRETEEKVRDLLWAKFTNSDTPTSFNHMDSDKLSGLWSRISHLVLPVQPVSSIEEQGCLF
UniProt Q02880: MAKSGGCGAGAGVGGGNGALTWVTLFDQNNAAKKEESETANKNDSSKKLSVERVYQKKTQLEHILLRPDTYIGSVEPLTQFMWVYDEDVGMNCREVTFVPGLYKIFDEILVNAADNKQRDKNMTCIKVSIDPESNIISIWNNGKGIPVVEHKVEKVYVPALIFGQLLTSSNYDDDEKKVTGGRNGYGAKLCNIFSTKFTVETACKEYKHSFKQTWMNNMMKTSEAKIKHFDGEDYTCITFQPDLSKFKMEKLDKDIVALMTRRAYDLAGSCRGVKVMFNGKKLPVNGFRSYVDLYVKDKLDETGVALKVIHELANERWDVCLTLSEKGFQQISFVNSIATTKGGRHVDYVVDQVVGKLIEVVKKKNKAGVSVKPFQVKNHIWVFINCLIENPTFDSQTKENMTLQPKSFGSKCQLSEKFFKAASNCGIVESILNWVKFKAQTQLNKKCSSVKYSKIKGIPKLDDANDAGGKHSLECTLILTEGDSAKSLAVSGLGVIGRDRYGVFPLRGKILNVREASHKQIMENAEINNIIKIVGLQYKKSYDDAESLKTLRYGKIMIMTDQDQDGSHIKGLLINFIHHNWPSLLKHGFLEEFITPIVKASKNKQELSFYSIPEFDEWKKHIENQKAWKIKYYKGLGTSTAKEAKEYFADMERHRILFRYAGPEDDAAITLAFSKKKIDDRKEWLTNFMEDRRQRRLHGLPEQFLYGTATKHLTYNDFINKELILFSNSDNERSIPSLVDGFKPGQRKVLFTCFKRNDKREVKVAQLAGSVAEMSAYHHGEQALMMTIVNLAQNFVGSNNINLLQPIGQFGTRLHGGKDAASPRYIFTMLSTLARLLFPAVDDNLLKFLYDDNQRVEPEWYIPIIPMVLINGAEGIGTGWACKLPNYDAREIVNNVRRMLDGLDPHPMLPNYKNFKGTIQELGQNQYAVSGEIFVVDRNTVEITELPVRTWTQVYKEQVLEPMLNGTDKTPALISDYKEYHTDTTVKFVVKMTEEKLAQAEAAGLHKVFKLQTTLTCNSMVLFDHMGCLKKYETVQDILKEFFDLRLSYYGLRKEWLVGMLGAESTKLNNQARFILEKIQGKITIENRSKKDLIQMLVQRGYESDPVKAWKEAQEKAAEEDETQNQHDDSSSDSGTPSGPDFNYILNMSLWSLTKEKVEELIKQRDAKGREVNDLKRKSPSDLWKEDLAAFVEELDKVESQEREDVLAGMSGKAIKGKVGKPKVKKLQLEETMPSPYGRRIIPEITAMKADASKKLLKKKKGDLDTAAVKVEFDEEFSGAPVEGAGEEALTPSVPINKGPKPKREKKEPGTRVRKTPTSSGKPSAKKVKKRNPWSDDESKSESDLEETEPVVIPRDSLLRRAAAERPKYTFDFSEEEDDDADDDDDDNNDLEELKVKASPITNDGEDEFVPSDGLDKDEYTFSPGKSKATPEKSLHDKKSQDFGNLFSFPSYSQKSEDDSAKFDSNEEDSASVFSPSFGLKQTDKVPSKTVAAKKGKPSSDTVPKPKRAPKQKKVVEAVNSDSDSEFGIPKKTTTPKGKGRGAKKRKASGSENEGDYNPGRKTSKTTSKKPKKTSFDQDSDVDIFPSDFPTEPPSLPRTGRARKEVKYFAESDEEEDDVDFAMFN

Assays:
Assay in all cases: log2 fold change, soluble protein after heating vs DMSO (PISA); higher = thermal stabilisation; K562 cells, 10 uM, 30 min; active = over 0.2 and 3.5 SD of the protein, either way, in both replicates (recomputed)
[1] = compound: CC[C@@H]1C(=O)N(C)c2cnc(Nc3ccc(C(=O)NC4CCN(C)CC4)cc3OC)nc2N1C1CCCC1
In short: (§1)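 Values are thermal stability changes relative to control samples and are taken from duplicates. They are stated as log2 fold changes. Before quantification by TMTpro 16plex LC-MS/MS with equalised channel sums, K562 cells at 2×10^6 cells/mL were treated with 10 μM compound for 30 min, heated in aliquots for 3 min across 48°C-58°C, pooled, extracted in PBS with 0.5% NP-40 at 4°C, and centrifuged at 21,000xg for 90 min to give the soluble supernatant.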

volasertib = compound: CC[C@@H]1C(=O)N(C)c2cnc(Nc3ccc(C(=O)N[C@H]4CC[C@H](N5CCN(CC6CC6)CC5)CC4)cc3OC)nc2N1C(C)C [volasertib]
In short: as §1

[2] = compound: CC[C@H](C)N1C=C(C2=C(C=C(C=C21)C3=CN=C(C=C3)N4CCNCC4)C(=O)NCC5=C(C=C(NC5=O)C)C)C
In short: as §1

epoxomicin = compound: CC[C@H](C)[C@@H](C(=O)N[C@@H]([C@@H](C)O)C(=O)N[C@@H](CC(C)C)C(=O)[C@]1(CO1)C)NC(=O)[C@H]([C@@H](C)CC)N(C)C(=O)C [epoxomicin]
In short: as §1

[3] = compound: CCn1c(C(=O)N(C2CC2)C2CC2)cc2c3c(ncn3C)c(Nc3cc(C)n(C)n3)nc21
In short: as §1

[4] = compound: CCn1cc(-c2ccnc3[nH]c(-c4cccc(CN(C)C)c4)cc23)c(-c2ccc(NC(=O)N(C)C)cc2)n1
In short: as §1

[5] = compound: CN(C)CC(=O)Nc1ccc2[nH]c(=O)c3ccccc3c2c1
In short: as §1

rosiglitazone = compound: CN(CCOC1=CC=C(C=C1)C[C@H]2C(=O)NC(=O)S2)C3=CC=CC=N3 (racemic) [rosiglitazone]
In short: as §1

[6] = compound: CN1C2=C(C3=C1C(=O)N(N=C3)CC4=CC(=CC=C4)N)SC(=C2)S(=O)C
In short: as §1

[7] = compound: CN1CCC(CNc2ccc3ncc(-c4cccc(OC(F)(F)F)c4)n3n2)CC1
In short: as §1

Measured: log2 fold change

TRMT1 (UniProt Q9NXH9)
inactive: [1] 0.036 | volasertib -0.033 | [2] -0.064 | epoxomicin -0.019 | [3] 0.005 | [4] 0.011 | [5] -0.012 | rosiglitazone 0 | [6] -0.023 | [7] -0.025

TNIK isoform 6 (UniProt Q9UKE5)
inactive: [1] -0.041 | volasertib 0.003 | [2] 0.011 | epoxomicin 0.025 | [3] -0.008 | [4] -0.062 | [5] -0.024 | rosiglitazone 0.026 | [6] 0.016 | [7] -0.034

TRNT1 (UniProt Q96Q11)
inactive: [1] -0.032 | volasertib -0.011 | [2] 0.017 | epoxomicin 0.067 | [3] -0.011 | [4] -0.052 | [5] 0.022 | rosiglitazone 0.046 | [6] -0.043 | [7] -0.14

TRIM32 (UniProt Q13049)
inactive: [1] 0 | volasertib 0.19 | [2] -0.017 | epoxomicin -0.129 | [3] -0.046 | [4] -0.063 | [5] -0.152 | rosiglitazone 0.074 | [6] 0.163 | [7] 0.042

TOMM22 (UniProt Q9NS69)
inactive: [1] 0.033 | volasertib -0.009 | [2] -0.003 | epoxomicin 0.098 | [3] -0.03 | [4] 0.012 | [5] 0.033 | rosiglitazone -0.03 | [6] -0.062 | [7] 0.103

TOMM34 (UniProt Q15785)
inactive: [1] -0.038 | volasertib -0.214 | [2] 0.056 | epoxomicin -0.009 | [3] -0.055 | [4] -0.017 | [5] 0.078 | rosiglitazone 0.034 | [6] 0.085 | [7] -0.212

TOR2A (UniProt Q5JU69)
inactive: [1] 0.072 | volasertib 0.148 | [2] -0.095 | epoxomicin 0.126 | [3] 0.029 | [4] 0.092 | [5] 0.12 | rosiglitazone -0.018 | [6] 0.034 | [7] 0.099

TRAF4 (UniProt Q9BUZ4)
inactive: [1] 0.021 | volasertib 0.032 | [2] -0.011 | epoxomicin -0.001 | [3] -0.019 | [4] 0.006 | [5] 0.013 | rosiglitazone 0.031 | [6] 0.073 | [7] -0.012

TPD52L1 (UniProt Q16890)
inactive: [1] 0.04 | volasertib -0.022 | [2] -0.012 | epoxomicin 0.024 | [3] 0.04 | [4] -0.001 | [5] 0.03 | rosiglitazone 0.035 | [6] -0.014 | [7] 0.002

TPRKB (UniProt Q9Y3C4)
inactive: [1] 0.023 | volasertib 0.068 | [2] 0.008 | epoxomicin -0.034 | [3] 0.025 | [4] -0.017 | [5] 0.086 | rosiglitazone -0.004 | [6] -0.055 | [7] 0.035

TPX2 (UniProt Q9ULW0)
inactive: [1] 0.084 | volasertib 0.09 | [2] -0.006 | epoxomicin 0.047 | [3] 0.007 | [4] 0.079 | [5] -0.075 | rosiglitazone -0.044 | [6] 0.006 | [7] -0.021

TRIM25 (UniProt Q14258)
inactive: [1] -0.01 | volasertib -0.277 | [2] 0.069 | epoxomicin -0.166 | [3] -0.051 | [4] 0.131 | [5] 0.038 | rosiglitazone -0.018 | [6] 0.207 | [7] 0.123

Random excerpt: two entries already listed.
TRNT1 (UniProt Q96Q11)
inactive: [1] -0.032 | volasertib -0.011 | [2] 0.017 | epoxomicin 0.067 | [3] -0.011 | [4] -0.052 | [5] 0.022 | rosiglitazone 0.046 | [6] -0.043 | [7] -0.14

TRMT1 (UniProt Q9NXH9)
inactive: [1] 0.036 | volasertib -0.033 | [2] -0.064 | epoxomicin -0.019 | [3] 0.005 | [4] 0.011 | [5] -0.012 | rosiglitazone 0 | [6] -0.023 | [7] -0.025

Next records follow:

TRA2B (UniProt P62995)
inactive: [1] 0.157 | volasertib 0.131 | [2] -0.031 | epoxomicin -0.139 | [3] 0.032 | [4] 0.42 | [5] -0.024 | rosiglitazone -0.243 | [6] 0.38 | [7] 0.391

TRMT61B (UniProt Q9BVS5)
inactive: [1] 0.154 | volasertib 0.234 | [2] -0.03 | epoxomicin -0.056 | [3] 0.006 | [4] 0.059 | [5] -0.128 | rosiglitazone -0.012 | [6] 0.026 | [7] 0.104

TRIAP1 (UniProt O43715)
inactive: [1] 0.018 | volasertib -0.076 | [2] -0.05 | epoxomicin 0.198 | [3] -0.039 | [4] 0.099 | [5] -0.016 | rosiglitazone -0.039 | [6] -0.08 | [7] 0.116

TRIM33 (UniProt Q9UPN9)
inactive: [1] -0.127 | volasertib -0.292 | [2] -0.122 | epoxomicin 0.101 | [3] -0.148 | [4] -0.136 | [5] 0.162 | rosiglitazone 0.236 | [6] 0.033 | [7] -0.04

TRAPPC10 (UniProt P48553)
inactive: [1] -0.034 | volasertib -0.144 | [2] 0.026 | epoxomicin -0.034 | [3] -0.024 | [4] -0.072 | [5] 0.007 | rosiglitazone 0.028 | [6] 0.008 | [7] 0

TOP3B (UniProt O95985)
inactive: [1] 0.08 | volasertib 0.133 | [2] 0.024 | epoxomicin -0.135 | [3] 0 | [4] 0.016 | [5] -0.031 | rosiglitazone -0.04 | [6] 0.184 | [7] 0.09

TRAPPC5 (UniProt Q8IUR0)
inactive: [1] -0.127 | volasertib -0.171 | [2] 0.103 | epoxomicin 0.082 | [3] 0.008 | [4] 0.033 | [5] -0.023 | rosiglitazone 0.063 | [6] -0.053 | [7] -0.113

TP53I3 (UniProt Q53FA7)
inactive: [1] 0.023 | volasertib 0.055 | [2] -0.027 | epoxomicin 0.022 | [3] 0.028 | [4] 0.026 | [5] -0.031 | rosiglitazone -0.006 | [6] 0.005 | [7] -0.035

TRIP13 (UniProt Q15645)
inactive: [1] -0.01 | volasertib -0.168 | [2] 0.036 | epoxomicin 0.017 | [3] 0.002 | [4] -0.067 | [5] 0.002 | rosiglitazone 0.046 | [6] -0.051 | [7] -0.211

TNKS1BP1 (UniProt Q9C0C2)
inactive: [1] 0.028 | volasertib 0.125 | [2] -0.058 | epoxomicin -0.018 | [3] 0.011 | [4] 0.025 | [5] -0.016 | rosiglitazone -0.015 | [6] -0.018 | [7] 0.013

TRAP1 (UniProt Q12931)
inactive: [1] -0.014 | volasertib 0.074 | [2] -0.026 | epoxomicin 0.034 | [3] 0.035 | [4] 0.008 | [5] -0.021 | rosiglitazone -0.004 | [6] -0.049 | [7] 0.011

TOR1AIP2 (UniProt Q8NFQ8)
inactive: [1] 0.03 | volasertib 0.028 | [2] 0.002 | epoxomicin 0.01 | [3] 0.06 | [4] 0.014 | [5] -0.023 | rosiglitazone -0.004 | [6] 0.009 | [7] 0.032

TRMT13 (UniProt Q9NUP7)
inactive: [1] -0.056 | volasertib -0.144 | [2] -0.103 | epoxomicin 0.004 | [3] -0.058 | [4] -0.035 | [5] -0.05 | rosiglitazone 0 | [6] -0.031 | [7] -0.032

TRMT1L (UniProt Q7Z2T5)
inactive: [1] 0.282 | volasertib 0.41 | [2] 0.045 | epoxomicin -0.36 | [3] 0.057 | [4] 0.179 | [5] -0.161 | rosiglitazone -0.153 | [6] 0.334 | [7] 0.335

TOP2B (UniProt Q02880)
inactive: [1] 0.181 | volasertib 0.194 | [2] 0.088 | epoxomicin -0.325 | [3] 0.078 | [4] 0.198 | [5] -0.215 | rosiglitazone -0.232 | [6] 0.383 | [7] 0.189

TOLLIP (UniProt Q9H0E2)
inactive: [1] 0.02 | volasertib -0.067 | [2] 0.056 | epoxomicin 0.018 | [3] 0.021 | [4] -0.071 | [5] 0.115 | rosiglitazone 0.01 | [6] -0.051 | [7] 0.007

TOX4 (UniProt O94842)
inactive: [1] 0.192 | volasertib 0.174 | [2] -0.036 | epoxomicin -0.194 | [3] -0.028 | [4] 0.161 | [5] -0.086 | rosiglitazone -0.065 | [6] 0.225 | [7] 0.167
